Results are given in words; binding and its absence hold for the method and conditions named. Binding seen in cells or lysates may run through a third protein. Some entries that bind do so weakly or less than the wild type.
Columns and labels:
[1] = biological target: D1 dopamine receptor wild type, Rluc8-tagged (D1R-Rluc8) (rat) (UniProt P18901); test: FRET or BRET; direct β-arrestin recruitment BRET in live HEK293 cells co-transfected with D1R-Rluc8 and β-arrestin2-mVenus; DPBS, room temperature; 5 µM coelenterazine h 5 min, then dopamine 5 min; Emax as percent of the maximum D1R WT dopamine response
[2] = biological target: D1R GRK-null mutant (rat) (UniProt P18901); test: as above

By UniProt entry, the sequences of proteins in these tests, tags left out. Where a name states a change or a piece, a line headed by the entry shows the natural chain unless it says otherwise. Chains listed by the source or under a name are the forms on record and can include a tag or linker.
UniProt P18901: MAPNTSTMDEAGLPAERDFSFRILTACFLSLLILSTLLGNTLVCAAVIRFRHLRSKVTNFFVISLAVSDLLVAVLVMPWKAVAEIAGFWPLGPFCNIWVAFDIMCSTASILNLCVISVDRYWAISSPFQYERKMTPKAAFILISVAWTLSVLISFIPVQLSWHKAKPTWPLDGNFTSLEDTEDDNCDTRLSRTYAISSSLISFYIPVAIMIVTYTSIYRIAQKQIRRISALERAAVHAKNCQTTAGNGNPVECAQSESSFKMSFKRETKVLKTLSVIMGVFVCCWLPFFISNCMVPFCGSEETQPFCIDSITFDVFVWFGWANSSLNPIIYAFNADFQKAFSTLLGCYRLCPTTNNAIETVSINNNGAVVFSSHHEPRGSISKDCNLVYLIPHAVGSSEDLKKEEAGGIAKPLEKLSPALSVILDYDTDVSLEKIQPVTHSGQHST
D1R GRK-null mutant (P18901, form named): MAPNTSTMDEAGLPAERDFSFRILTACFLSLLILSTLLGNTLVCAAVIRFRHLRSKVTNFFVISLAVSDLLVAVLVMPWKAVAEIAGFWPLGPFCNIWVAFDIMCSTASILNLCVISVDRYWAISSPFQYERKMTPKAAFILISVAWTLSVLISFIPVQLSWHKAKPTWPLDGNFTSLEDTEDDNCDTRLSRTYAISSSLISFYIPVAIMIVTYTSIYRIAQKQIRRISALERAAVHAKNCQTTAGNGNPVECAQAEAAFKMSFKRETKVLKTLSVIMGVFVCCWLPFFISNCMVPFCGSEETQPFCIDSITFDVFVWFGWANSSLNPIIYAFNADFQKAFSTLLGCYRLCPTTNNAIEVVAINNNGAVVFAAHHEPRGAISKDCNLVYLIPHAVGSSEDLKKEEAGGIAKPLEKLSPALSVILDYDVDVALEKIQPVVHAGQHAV

binding [1]: binds | binding [2]: no binding
Substance: β-arrestin2-mVenus (from UniProt P32121 1-409)

— paper PMC10095280
